Assay results: PubChem BioAssay AID1688 (National Center for Advancing Translational Sciences (NCATS), 2009)
Among all 220,000 compounds or so, about 2,400 (1.1%) were called active. Inconclusive results, whose numbers are uncertain, are shown with a selection of clear calls. The call rests on the fitted dose curve; in most records, active means well fitted inhibition curve with a large enough effect; inconclusive means small, poorly fitted or top-dose-only effect, or effect the other way; inactive means no such curve, though single readings can be large or run the other way. Potencies of inconclusive entries are doubtful fits and often do not repeat.

Experiment: qHTS Multiplex Assay to Identify Dual Action Probes in a Cell Model of Huntington: Aggregate Formation (GFP); further: nearly all actives have a fitted effect of over 60% in size
Details: PC12 HttQ103-GFP aggregates, Acumen cytometry, 40 h; activity change, negative = inhibition: at 46.1 µM (top of the series) unless noted
In short: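 Inducible Q103 Huntingtin exon 1–GFP PC12 line, 1500 cells/well in phenol red free DMEM with 5% equine and 5% calf serum. Tebufenozide 100 nM induced expression; compounds titrated; aggregates quantified by cytometry.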
On the % scale 0 is the no-effect control and ±100 the full control effect; potency means the concentration at half of the fitted maximal effect.

Structure (SMILES)	Potency	activity change, negative = inhibition
O=C(/C=C/c1ccnc2ccccc12)c1cccs1	inconclusive: 35.5 µM [inhibitor, single point]	–
COc1ccccc1OCCn1cc(/C=C(\C#N)C(=O)NCc2cccs2)c2ccccc21	inconclusive: 0.562 µM [inhibitor, partial curve, poor fit]	–
CCOC(N)=O	inactive	–
CC(C)NC(=O)Nc1cccs1	inactive	–
Cc1ccc(-n2nnnc2SC(C)C(N)=O)c(C)c1 (stereo unspecified)	inactive	–
CCc1cc(C(=O)N2CCCC(CNS(=O)(=O)c3cccs3)C2)n(C)n1 (stereo unspecified)	–	inactive: -11.7% [at 9.22 µM]
Cc1ccc(-n2nnc3c(=O)n(CC(=O)OCc4ccccc4)cnc32)cc1	active: 0.0028 µM	–
OCCN1CCN(Cc2cc(Cl)c3cccnc3c2O)CC1	inconclusive: 11.2 µM [inhibitor, single point]	–
O=C(Nc1ccc(N2CCN(C(=O)c3ccc(Cl)cc3)CC2)cc1)c1cccnc1	inconclusive: 0.891 µM [inhibitor, full curve, poor fit]	–
O=C(NC(=S)Nc1ccccc1N1CCCCC1)c1ccc(-c2cccc([N+](=O)[O-])c2)o1	inactive	–
O=C(Nc1ccn(Cc2ccccc2F)n1)c1ccc(COc2cccc(Br)c2)cc1	inconclusive: 22.4 µM [inhibitor, single point]	–
CCC(=O)N(Cc1ccco1)c1nc(C(=O)Nc2ccc(Cl)cc2)c(C)s1	inconclusive: 22.4 µM [inhibitor, single point]	–
Cn1ncc(C#N)c1/N=C/N(Cc1ccccc1)Cc1ccccc1	inconclusive: 35.5 µM [inhibitor, single point]	–
Cc1ccc(NS(=O)(=O)c2cccs2)cc1S(=O)(=O)N1CCCCCC1	inconclusive: 35.5 µM [inhibitor, single point]	–
Cc1ccc(C)c(N2CCN(C(=O)c3ccccc3Br)CC2)c1	inactive	–
Cc1ccccc1OCc1csc(N)n1	inactive	–
O=C1c2cccc(O)c2C(=O)c2c(O)cccc21	inconclusive: 12.6 µM [inhibitor, single point]	–
Clc1ccc(-n2nnnc2-c2cnc(-c3ccncc3)nc2-c2cccs2)cc1	inconclusive: 25.1 µM [inhibitor, single point]	–
c1ccc(-c2nc(-c3ccccn3)no2)cc1	inactive	–
CC(=O)c1cccc(S(=O)(=O)NC2CC2)c1	inactive	–
CCOc1cc(/C=N/Nc2ccccc2Cl)ccc1OCC(=O)O	inconclusive: 12.6 µM [inhibitor, partial curve]	–
CCc1ccc(CN/C=C/C(=O)c2ccc(Br)cc2)cc1	inconclusive: 0.708 µM [inhibitor, single point]	–
O=C(O)c1cccc(Cn2cccn2)c1	inconclusive: 3.98 µM [inhibitor, partial curve]	–

Structure (SMILES)	Potency	activity change, negative = inhibition
CCc1nc2c(cnn2-c2ccc(Cl)cc2)c(=O)n1-c1ccc(OC)cc1	inconclusive: 15.8 µM [inhibitor, single point]	–
CC1CCCC(C)N1C(=O)CN1C(=O)C(C)(C)Oc2ccc(C(=O)NC3CCCCC3)cc21 (stereo unspecified)	inconclusive: 12.6 µM [activator, partial curve, poor fit]	–
S=C(NCCSCc1ccc(Cl)cc1Cl)Nc1ccccc1	inconclusive: 15.8 µM [inhibitor, single point]	–
O=C(CSCc1nc2c(nnn2Cc2ccc(F)cc2)c(=O)[nH]1)Nc1c(Cl)cc(Cl)cc1Cl	inactive	–
CCOc1ccc(/C(O)=C2/C(=O)C(=O)N(CCOCCO)C2c2ccc(F)cc2)cc1 (stereo unspecified)	inconclusive: 25.1 µM [activator, single point]	–
Cc1ccc(-c2csc(NNC(=O)c3ccccc3)n2)cc1	inconclusive: 12.6 µM [inhibitor, partial curve]	–
CCOC(=O)c1ccc(NC(=O)c2cc(S(=O)(=O)N3CCOCC3)ccc2O)cc1	inconclusive: 1.26 µM [inhibitor, full curve, poor fit]	–
COc1ccc(OC)c(Nc2nc(-c3sc(N)nc3C)cs2)c1	inactive	–
Cc1cc(O)c(-c2n[nH]c3c2C(c2cccc(O)c2)N(Cc2cccnc2)C3=O)cc1Cl (stereo unspecified)	inconclusive: 6.31 µM [inhibitor, single point]	–
CC(=O)N=c1sc(S(N)(=O)=O)nn1C	inconclusive: 12.6 µM [activator, partial curve, poor fit]	–
O=C(NC(c1ccccc1)c1c(O)ccc2ccccc12)c1ccccc1Cl (stereo unspecified)	inconclusive: 25.1 µM [inhibitor, single point]	–
Cc1ccc(NC(=S)N(C)Cc2cn(C)c3ccccc23)cc1	active: 35.5 µM	–
Cc1ccc(CNC(=O)c2ccccc2-n2cnnn2)cc1	–	inactive: -14.4% [at 9.22 µM]
Cc1cc(C(=O)NCCCN(C)C)c2ccccc2n1	inconclusive: 3.16 µM [inhibitor, partial curve]	–
OCCC1CN(Cc2cccn2-c2ncccn2)CCN1C1CCCC1 (stereo unspecified)	–	inactive: 7.99% [at 9.22 µM]
Cc1ccc(S(=O)(=O)N(CC(=O)NCCC2=CCCCC2)Cc2ccccc2F)cc1	inconclusive: 0.891 µM [inhibitor, single point]	–
CC(C)c1ccc(C2C3=C(CC(C)(C)CC3=O)NC3=C2C(=O)c2ccccc23)cc1 (stereo unspecified)	inconclusive: 28.2 µM [inhibitor, single point]	–
COc1cc(/C=N/NC(N)=S)ccc1OCc1ccc(C)cc1	inconclusive: 11.2 µM [inhibitor, single point]	–
CCn1c(=O)c(C(=O)NCCc2ccccc2)c(O)c2ccccc21	inconclusive: 35.5 µM [inhibitor, single point]	–
O=C(Cc1c[nH]c2ccccc12)N/N=C/c1ccccc1O	–	inactive: -16.9% [at 9.22 µM]
S=C(Nc1cccc(Cl)c1)N(CCCN1CCCC1)Cc1cccn1Cc1ccc(Cl)cc1	inconclusive: 35.5 µM [inhibitor, single point]	–
CC12CC3CC(C)(C1)CC(C(=O)NC1=NCCS1)(C3)C2	inconclusive: 1 µM [activator, partial curve]	–
Cc1c(Cl)cccc1NC(=O)Cn1cc(C(F)(F)F)cc(Cl)c1=O	inconclusive: 0.891 µM [activator, full curve, poor fit]	–

Individual results from the list:
Under Potency, O=C1c2cccc(O)c2C(=O)c2c(O)cccc21 has inconclusive: 12.6 µM [inhibitor, single point]
Under Potency, Cc1cc(C(=O)NCCCN(C)C)c2ccccc2n1 has inconclusive: 3.16 µM [inhibitor, partial curve]
Under Potency, CCOC(N)=O has inactive
